PubChem BioAssay AID504808 – Drosophila RNAi Screening Center – 2011

Screen: 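Fly genes required to hold E2F transcription in check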 (primary screen)
Cells: Drosophila S2 cells
Reagent: long dsRNA against Drosophila genes
Measurement: 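Dual luciferase plate measurements; E2F-specific signal taken as firefly over Renilla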
Scale: E2F firefly: higher = more E2F reporter activity; Renilla normaliser: higher = more normaliser reporter signal
Hit rule: 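a knock-down counted as active when the firefly/Renilla E2F signal rose above 50%, a threshold chosen arbitrarily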
The deposit covers about 21,000 reagents; shown is an unselected part of those with a known target gene and a result. In the full data, 18 (0.084%) are marked active. 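Raw counts without plate normalisation, one of two replicates; the ratio scores behind the calls were not deposited.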 Reagents against one gene are numbered here. Names joined by + are all predicted targets of the reagent. Not given: the amount of reagent, the time to read-out.

| gene | reagent | E2F firefly, rep 1 | Renilla normaliser, rep 1 | activity call |
| --- | --- | --- | --- | --- |
| CG14708 (GeneID 41383) | 1 | 1.31e5 | 6197 | inactive |
| CG10164 (GeneID 42777) | 1 | 55271 | 3208 | inactive |
| VAChT (GeneID 42795) | 1 | 78541 | 2407 | inactive |
| VAChT (GeneID 42795) | 2 | 80369 | 3303 | inactive |
| TTLL4B (GeneID 33609) | 1 | 78579 | 3956 | inactive |
| CG10000 (GeneID 43394) | 1 | 1.23e5 | 6946 | inactive |
| CG9896 (GeneID 37652) | 1 | 1.26e5 | 4350 | inactive |
| CG9896 (GeneID 37652) | 2 | 96658 | 3986 | inactive |
| CG30109 + CG30108 | 1 | 1.58e5 | 6247 | inactive |
| Sse (GeneID 38640) | 1 | 72221 | 4749 | inactive |
| CG8089 (GeneID 36679) | 1 | 1.05e5 | 4700 | inactive |
| Vps26 (GeneID 31144) | 1 | 1838 | 860 | inactive |
| CG3164 (GeneID 33171) | 1 | 1.50e5 | 5530 | inactive |
| Cog6 (GeneID 35953) | 1 | 3222 | 55 | inactive |
| CG32523 (GeneID 318071) | 1 | 1.42e5 | 6981 | inactive |
| Rpn6 (GeneID 36638) | 1 | 129 | 32 | inactive |
| Parp1 (GeneID 3355109) | 1 | 1.71e5 | 5855 | inactive |
| Parp1 (GeneID 3355109) | 2 | 1.15e5 | 4275 | inactive |
| Parp1 (GeneID 3355109) | 3 | 98510 | 4190 | inactive |
| CG16837 (GeneID 37904) | 1 | 1.11e5 | 4361 | inactive |
| VhaM9.7-c (GeneID 38503) | 1 | 73339 | 3306 | inactive |
| pdgy (GeneID 32426) | 1 | 87295 | 2935 | inactive |
| pdgy (GeneID 32426) | 2 | 8223 | 708 | inactive |
| CHES-1-like (GeneID 31678) | 1 | 48998 | 3606 | inactive |
| Mnat9 (GeneID 43726) | 1 | 50202 | 3290 | inactive |
| Phb1 (GeneID 49168) | 1 | 80910 | 3649 | inactive |
| Ac78C (GeneID 40333) | 1 | 79982 | 4600 | inactive |
| Ac78C (GeneID 40333) | 2 | 1.27e5 | 6591 | inactive |
| Ac78C (GeneID 40333) | 3 | 1.42e5 | 7480 | inactive |
| His3:CG33818 + His3:CG33857 + His3:CG33806 + 20 more | 1 | 48856 | 36322 | inactive |
| CoRest (GeneID 32941) | 1 | 1.43e5 | 5633 | inactive |
| CG13712 (GeneID 38574) | 1 | 94620 | 3674 | inactive |
| Osi8 (GeneID 40762) | 1 | 1.35e5 | 6742 | inactive |
| Lamtor5 (GeneID 31137) | 1 | 1.34e5 | 6596 | inactive |

Targets above whose target name starts with A or a (3):
| gene | reagent | E2F firefly, rep 1 | Renilla normaliser, rep 1 | activity call |
| --- | --- | --- | --- | --- |
| Ac78C (GeneID 40333) | 1 | 79982 | 4600 | inactive |
| Ac78C (GeneID 40333) | 2 | 1.27e5 | 6591 | inactive |
| Ac78C (GeneID 40333) | 3 | 1.42e5 | 7480 | inactive |
